Data from patent US20080090257A1.
These are yes or no findings as the source states them, for the method shown. Binding seen in cells or lysates may run through a third protein. Some results given as binding are weak or reduced against the parent protein; the word gives no strength. Tags and fused reporters may be left off the sequences shown.

Sequences of proteins named here, by UniProt entry; tags and fusion partners are left off.
UniProt P37238: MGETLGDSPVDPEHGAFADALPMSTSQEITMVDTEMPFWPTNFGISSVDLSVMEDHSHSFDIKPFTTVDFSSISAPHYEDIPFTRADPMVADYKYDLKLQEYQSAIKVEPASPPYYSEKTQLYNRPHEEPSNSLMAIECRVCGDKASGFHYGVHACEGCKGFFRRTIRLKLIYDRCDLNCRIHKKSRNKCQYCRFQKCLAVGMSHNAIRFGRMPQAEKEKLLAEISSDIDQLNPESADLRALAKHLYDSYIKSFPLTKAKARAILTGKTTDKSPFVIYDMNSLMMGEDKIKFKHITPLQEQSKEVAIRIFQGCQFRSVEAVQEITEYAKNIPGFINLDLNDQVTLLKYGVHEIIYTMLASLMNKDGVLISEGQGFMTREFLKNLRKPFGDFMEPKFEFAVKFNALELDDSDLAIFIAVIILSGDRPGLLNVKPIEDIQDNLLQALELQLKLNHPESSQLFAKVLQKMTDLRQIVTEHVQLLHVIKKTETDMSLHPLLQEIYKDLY

How the values were obtained:
[1] = biological target: endogenous PPARγ in differentiating OP9 cells (UniProt P37238); experiment: co-IP with anti-GFP monoclonal antibody, detection with anti-PPARγ antibody (FIG. 7C)
[2] = biological target: endogenous PPARγ in differentiating OP9 cells (UniProt P37238); experiment: co-IP with anti-GFP monoclonal antibody from OP9 cells transduced with Ad-GFP-CCPG, detection with anti-PPARγ antibody

B1: GFP-tagged CCPG (GFP-CCPG) (protein, not shown: large carriers)
chain: MGVRGLQGFVGSTCPHICTIVNIHELAERHRNKYPGCTPTIVVDAMCCLRYWYTAESWVCGGQWREYYCALRNFVAAFTSAGIKLIFFFDGMVEPGKRDEWVKRRLKNNREISKIFHYIKSKRDQPGRNMFFIPSGLAIFTRFALKTLGQETFCSLQEADYEVASYGLQHNCLGILGEDTDYLIYDTCPYFSIGDLCLESLQTIMLCREKLCESLGLRVADLPLLACLLGNDITPESMFESFRYKCLSSYASVKENAGKKGNIILAVSDYISKVLHLYQGEKKIEEMLPLGPNKALFYKGVTSYLLPGQKSPWLVQKPKGMITDKQQMVSLNPESKQEVPMCIDPEFKQEVPVCTNPESMQEVPMCMDPEPNQEASMCTDPESKQEVPMCTDSESKPEVSQYTNPESKQKLPSGIDTEFNLEALMCTHPEFKQEDVMDMEPEIKQVTMVSESEILKVARMHHVHSESYLVYNILSSGEIECSNTLEDELDQALPSQAFIYRPVRQRVYALLLGDWKDGASTGPVVKEWFVYPGNSLKHPDLVRPLQMTVQGGTPSLEVLWLSQEPAVQAQRLDTLLACFNLSSSREELQAVESPLRALCCLLIYLFVQVDTLSLEDLHAFIAQALCLQGKSTSQLMHLQLDYINSRAVQLGSLLVRGLTTLVLVNSACGFPWTTSEFMPWNVFDGKLFHQKYLQSEKGYAVEVLLEQNRSWLTKFHNLKAVVCKACSKENRRIVGRTHWDSPYTGRQGRQGYSSYRTDSTHGHSGQSWRNQGSGGRQHERNHWRRY
With B1 the binding [1] was “binds” and the binding [2] was “binds”.
